Measured values taken from patent US9243024B2, “Aptamer-mediated drug release” (priority 2009, dated 2016).
For at least one compound, name, drawing or mass did not settle the structure.

Test system: matrix-displayed aptamer (SEQ ID NO:11) on Biacore SA chip
Assay: Biacore SPR: loading and release from aptamer-coated SA chip
Assay type: binding
Conditions: concentrations far exceeding those realistically found in serum
Procedure: For SPR experiments, Biacore X system and commercially available Biacore SA sensor chips from Biacore AB (Uppsala, Sweden) were used.
A 1 μM solution of aptamer aptamer 5′-/5BioTEG//iSp18//iSp18/ATCTCGGTCTCGGGACGACAGGATTTTCCTCAATGAAGTGGGTCGTCCCGAGA (SEQ ID NO:11) in 10 mM HEPES at pH 7.4, 150 mM NaCl, and 3 mM EDTA (in HBS-EP) was applied to one of the SA sensor chip's two channels for 20 min at 4 μL min^−1, followed by a 120 sec wash with 4 M urea/15 mM EDTA to remove any nonspecifically adsorbed material. The aptamer used for these SPR experiments was shorter by two bases relative to the aptamer used in the microsphere experiments (see SEQ ID NO:7). According to the Biacore SA chip literature, the matrix was a highly irregular 3D dextran hydrogel recognition matrix with a height of approximately 100-200 nm and an uneven distribution of streptavidin. […]
Matrix-Aptamer Hybridization with (5). […] Conjugate dissociation in real time was measured through the decrease in mass, again using the formula 1000 R.U.=1 ng mm^2. […]
Release of the insulin-conjugate (i→ii in FIG. 1A) was studied in two different systems: 1) release from a dextran matrix (SA-Chip, Biacore), under continuous flow, with surface plasmon resonance (SPR) monitoring, and 2) release from the surface of non-porous beads followed by fluorescence monitoring. […]

COC(=O)[C@H]1[C@@H](OC(=O)c2ccccc2)C[C@@H]2CC[C@H]1N2C [cocaine]
response of the release system to other hydrophobic molecules: non-responsive
